According to PubChem BioAssay AID328 (DTP/NCI, 2004):
The list is a part of this screen's results and no random one: it is rich in T/C values a quarter to a half above the control, in often repeated tests (any T/C) and in doses without a T/C. Further doses and runs are listed elsewhere. T/C gives the treated animals as a percentage of the vehicle group. Some entries give survivors of the animals treated and no T/C: the source holds a T/C of zero for them, seemingly a mark for toxic or unscored doses. Some doses without a T/C left all or most animals alive at the check, yet need not have been tolerated: survival well below the control is almost never listed, so the zero probably covers shortened survival too. Survivors were counted at the toxicity check, usually on the fifth day, unless a day is given; later deaths do not show. Schedule codes are those of the source, taken here to give the interval after Q, in days (D) or hours (H), and the number of doses after X. Some entries were tested several times; the values are given in rising order. Where survival is the endpoint, this PubChem deposit counts one and a half times the control or more as active, and values a quarter to a half above the control carry no call in these data; other NCI protocols may use other cut-offs. Some T/C values are followed by the survivors on the day toxicity was checked, most often the fifth; where none is given, no animal had died by that day. Starred links: 1 amine or outer side, 2 acyl side, 3 side chain; linkers in the order of their positions; H or OH if unused. Positions of bridges follow the written chain, without caps; N, C: chain ends. Non-standard residues stand in square brackets, D forms with d. Residues, ends and D or L forms follow the SMILES beside them. Chains are numbered I, II in the order given. ξ: configuration not given here. Actinocin(9to1) = Cc1c2oc3c(C)ccc(C(=O)[*:1])c3nc-2c(C(=O)[*:2])c(N)c1=O; ξPro(4ξ-Me) = CC1CNC(C(=O)O)C1; NMeV = CN[CH](C(=O)O)C(C)C; Sar = CNCC(=O)O

Test system: BDF1 mice, P388 leukemia ip, median survival T/C
Experiment: NCI In Vivo Anticancer Drug Screen. Data for tumor model P388 Leukemia (intraperitoneal) in B6D2F1 (BDF1) mice
Conditions: T/C endpoint: median survival time, higher T/C = longer survival
Summary of the method: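 Antitumour effect was judged in vivo: survival in drug-treated mice, normalised to that of vehicle-dosed controls, gives the reported T/C.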

[1] = dose: 50.0 mg/kg/injection, schedule: Q01DX009 (ip), vehicle: saline with Tween-80
[2] = dose: 25.0 mg/kg/injection, schedule: Q01DX009 (ip), vehicle: saline with Tween-80
[3] = dose: 100.0 mg/kg/injection, schedule: Q01DX009 (ip), vehicle: saline with Tween-80
[4] = dose: 400.0 mg/kg/injection, schedule: Q04DX003 (ip), vehicle: saline with Tween-80
[5] = dose: 200.0 mg/kg/injection, schedule: Q04DX003 (ip), vehicle: saline with Tween-80
[6] = dose: 6.0 mg/kg/injection, schedule: Q01DX009 (ip), vehicle: saline + alcohol

With `C/C=C1\CN(C)[C@H]2Cc3c([nH]c4ccccc34)[C@@H](c3cc4[nH]c5c(c4cc3OC)CCN3C[C@H]4C[C@H](CC)[C@H]3[C@@]5(C(=O)OC)C4)C[C@H]1C2C(=O)OC` (stereo partly specified) the survivor count (dose: 15.0 mg/kg/injection, schedule: Q01DX010 (ip), vehicle: water) was 5 of 6, the survivor count (dose: 20.0 mg/kg/injection, schedule: Q01DX010 (ip), vehicle: water) was 1 of 6 and the survivor count (dose: 40.0 mg/kg/injection, schedule: Q01DX010 (ip), vehicle: water) was 6 of 6. The survivor count (dose: 60.0 mg/kg/injection, schedule: Q01DX010 (ip), vehicle: water) was 1 of 6.

`O=C(O)C1CSC(c2ccccc2)N1` (stereo unspecified) was tested, and the T/C [1] was 131 % of control.

In the case of `C1=CC=CCC=C1`, the T/C (dose: 35.0 mg/kg/injection, schedule: Q01DX009 (ip), vehicle: saline) is reported as 127 % of control [5 of 6 alive], the survivor count (dose: 50.0 mg/kg/injection, schedule: Q01DX009 (ip), vehicle: saline) is reported as 3 of 6 and the survivor count (dose: 75.0 mg/kg/injection, schedule: Q01DX009 (ip), vehicle: saline) is reported as 0 of 6 and 2 of 6. For the same compound, the survivor count (dose: 75.0 mg/kg/injection, schedule: Q04DX003 (ip), vehicle: saline) was 6 of 6, the survivor count (dose: 115.0 mg/kg/injection, schedule: Q04DX003 (ip), vehicle: saline) was 4 of 6 and the survivor count (dose: 170.0 mg/kg/injection, schedule: Q04DX003 (ip), vehicle: saline) was 0 of 6.

In the case of `O=C1N(Cl)C(=O)C(c2ccc(C(F)(F)F)cc2)(c2ccc(C(F)(F)F)cc2)N1Cl`, the survivor count [2] is reported as 0 of 6, the survivor count [1] is reported as 3 of 6 and the survivor count [3] is reported as 0 of 6. For the same compound, the survivor count (dose: 200.0 mg/kg/injection, schedule: Q01DX009 (ip), vehicle: saline with Tween-80) was 0 of 6 and the survivor count [4] was 6 of 6.

`COC(=O)CSc1ncc2cnccn12` was tested, and the survivor count (dose: 100.0 mg/kg/injection, schedule: Q01DX009 (ip), vehicle: water) was 6 of 6, the survivor count (dose: 200.0 mg/kg/injection, schedule: Q01DX009 (ip), vehicle: water) was 6 of 6 and the survivor count (dose: 400.0 mg/kg/injection, schedule: Q01DX009 (ip), vehicle: water) was 5 of 6.

`O=c1[nH]c2ccc(Br)cc2c(=O)o1` was tested, and the T/C [2] was 138 % of control, the T/C [1] was 144 % of control and the survivor count (dose: 150.0 mg/kg/injection, schedule: Q01DX001 (ip), vehicle: Klucel (hydroxypropylcellulose) (HPC)) was 6 of 6.

For `CC[C@](O)(C(=O)O)c1cc2n(c(=O)c1CO)Cc1cc3ccccc3nc1-2`, the T/C (dose: 0.5 mg/kg/injection, schedule: Q01DX009 (ip), vehicle: saline) was 127 % of control, the T/C (dose: 1.0 mg/kg/injection, schedule: Q01DX009 (ip), vehicle: saline) was 132 % of control and the survivor count (dose: 4.0 mg/kg/injection, schedule: Q01DX009 (ip), vehicle: water) was 10 of 10. The T/C (dose: 6.25 mg/kg/injection, schedule: Q04DX002 (ip), vehicle: saline) was 146 % of control, the survivor count (dose: 8.0 mg/kg/injection, schedule: Q01DX009 (ip), vehicle: water) was 10 of 10 and the T/C (dose: 15.0 mg/kg/injection, schedule: Q04DX003 (ip), vehicle: saline) was 136 % of control. The T/C (dose: 19.0 mg/kg/injection, schedule: Q01DX001 (ip), vehicle: saline, evaluated on day 5) was 142 % of control, the T/C (dose: 19.0 mg/kg/injection, schedule: Q01DX001 (ip), vehicle: saline, evaluated on day 60) was 142 % of control and the T/C (dose: 20.0 mg/kg/injection, schedule: Q04DX003 (ip), vehicle: water) was 125 % of control. For the same compound, the T/C (dose: 22.0 mg/kg/injection, schedule: Q04DX003 (ip), vehicle: saline) was 145 % of control, the T/C (dose: 38.0 mg/kg/injection, schedule: Q01DX001 (ip), vehicle: saline, evaluated on day 5) was 149 % of control and the T/C (dose: 38.0 mg/kg/injection, schedule: Q01DX001 (ip), vehicle: saline, evaluated on day 60) was 149 % of control. For the same compound, the survivor count (dose: 50.0 mg/kg/injection, schedule: Q04DX003 (ip), vehicle: saline) was 6 of 8, the survivor count (dose: 50.0 mg/kg/injection, schedule: Q04DX009 (ip), vehicle: saline) was 3 of 3 and the survivor count (dose: 75.0 mg/kg/injection, schedule: Q01DX001 (ip), vehicle: saline) was 5 of 9. For the same compound, the survivor count (dose: 80.0 mg/kg/injection, schedule: Q04DX003 (ip), vehicle: water) was 10 of 10, the survivor count (dose: 83.3 mg/kg/injection, schedule: Q04DX003 (ip), vehicle: saline) was 6 of 8 and the T/C (dose: 125.0 mg/kg/injection, schedule: Q01DX001 (ip), vehicle: saline) was 127 % of control [8 of 10 alive]. The survivor count (dose: 150.0 mg/kg/injection, schedule: Q01DX001 (ip), vehicle: saline) was 2 of 9 and 8 of 10, the survivor count (dose: 160.0 mg/kg/injection, schedule: Q04DX003 (ip), vehicle: water) was 10 of 10 and the survivor count (dose: 200.0 mg/kg/injection, schedule: Q01DX001 (ip), vehicle: saline) was 3 of 10.

With `CCCCCCCC[N+](C)(C)CCSCC[N+](C)(C)CCCCCCCC` the survivor count [2] was 5 of 6 and the survivor count [1] was 1 of 6.

In the case of `CC1(C)N=C(N)N=C(N)N1c1ccc(OCC(=O)N2CCOCC2)c(Cl)c1`, the T/C (dose: 25.0 mg/kg/injection, schedule: Q01DX009 (ip), vehicle: saline sonified) is reported as 131 % of control and the T/C (dose: 50.0 mg/kg/injection, schedule: Q01DX009 (ip), vehicle: saline sonified) is reported as 131 % of control.

For `Oc1cccc(O)c1`, the survivor count (dose: 200.0 mg/kg/injection, schedule: Q01DX010 (ip), vehicle: saline) was 5 of 6 and the survivor count (dose: 400.0 mg/kg/injection, schedule: Q01DX010 (ip), vehicle: saline) was 0 of 6.

For `CCOC(=O)C(CCSC(C)=O)SC(C)=O` (stereo unspecified), the survivor count [3] was 1 of 6, the survivor count (dose: 100.0 mg/kg/injection, schedule: Q04DX003 (ip), vehicle: saline with Tween-80) was 4 of 6 and the survivor count [5] was 0 of 6. For the same compound, the survivor count [4] was 0 of 6.

For `CCCCCCCCOC(=O)Nc1ccc(OCC)cc1`, the survivor count (dose: 6.25 mg/kg/injection, schedule: Q01DX009 (ip), vehicle: saline with Tween-80) was 6 of 6, the survivor count (dose: 12.5 mg/kg/injection, schedule: Q01DX009 (ip), vehicle: saline with Tween-80) was 6 of 6 and the survivor count [2] was 6 of 6.

In the case of `Cc1c2oc3c(C)ccc(C(=O)NC4C(=O)NC(C(C)C)C(=O)N5CC(C)CC5C(=O)N(C)CC(=O)N(C)C(C(C)C)C(=O)OC4C)c3nc-2c(C(=O)NC2C(=O)NC(C(C)C)C(=O)N3CC(C)CC3C(=O)N(C)CC(=O)N(C)C(C(C)C)C(=O)OC2C)c(N)c1=O` (stereo unspecified) (I: TV[ξPro(4ξ-Me)][Sar][NMeV] / II: TV[ξPro(4ξ-Me)][Sar][NMeV]; ester I:1-I:C, II:1-II:C; linker I:N-II:N via Actinocin(9to1); configuration not given here), the survivor count (dose: 1.3 mg/kg/injection, schedule: Q01DX009 (ip), vehicle: saline + alcohol) is reported as 8 of 8, the survivor count (dose: 2.16 mg/kg/injection, schedule: Q01DX009 (ip), vehicle: saline + alcohol) is reported as 6 of 8 and the T/C (dose: 3.24 mg/kg/injection, schedule: Q04DX003 (ip), vehicle: saline + alcohol) is reported as 147 % of control. For the same compound, the survivor count (dose: 3.6 mg/kg/injection, schedule: Q01DX009 (ip), vehicle: saline + alcohol) was 6 of 8, the T/C (dose: 5.4 mg/kg/injection, schedule: Q04DX003 (ip), vehicle: saline + alcohol) was 133 % of control and the T/C [6] was 131 % of control. The survivor count [6] was 5 of 8, the survivor count (dose: 9.0 mg/kg/injection, schedule: Q04DX003 (ip), vehicle: saline + alcohol) was 8 of 8 and the survivor count (dose: 15.0 mg/kg/injection, schedule: Q04DX003 (ip), vehicle: saline + alcohol) was 0 of 8 and 4 of 8. The T/C (dose: 173.0 micrograms/kg/injection, schedule: Q01DX009 (ip), vehicle: saline + alcohol) was 142 % of control, the T/C (dose: 864.0 micrograms/kg/injection, schedule: Q04DX003 (ip), vehicle: saline + alcohol) was 145 % of control and the T/C (dose: 2400.0 micrograms/kg/injection, schedule: Q04DX003 (ip), vehicle: saline + alcohol) was 127 % of control.

For `COc1cc([N+](=O)[O-])ccc1N`, the survivor count [5] was 6 of 6 and the survivor count [4] was 6 of 6.

`CC(=O)Nc1ccc(Cl)c(Cl)c1` was tested, and the survivor count [4] was 1 of 6.
